# Reference: publication PMC12586438
# Sequences of proteins named here, by UniProt entry; tags and fusion partners are left off. A change or cut given only in a name is not applied to a line headed by its entry.
# UniProt Q9BWQ8: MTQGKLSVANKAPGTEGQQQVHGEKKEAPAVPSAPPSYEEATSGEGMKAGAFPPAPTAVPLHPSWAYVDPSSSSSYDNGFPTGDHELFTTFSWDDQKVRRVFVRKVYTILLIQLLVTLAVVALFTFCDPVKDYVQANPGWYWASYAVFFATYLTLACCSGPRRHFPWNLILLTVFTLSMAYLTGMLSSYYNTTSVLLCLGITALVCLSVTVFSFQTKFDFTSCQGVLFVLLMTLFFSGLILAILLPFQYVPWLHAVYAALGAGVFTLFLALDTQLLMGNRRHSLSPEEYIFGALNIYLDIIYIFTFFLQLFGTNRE
# Target: FAIM2 lacking the LIR domain (FAIM2-ΔLIR) (UniProt Q9BWQ8)
# Assay: co-IP; HEK293T cells transfected with the indicated plasmids; immunoprecipitation and western blot
binder,measurement,value
"CREB-regulated transcription coactivator 2 (HA-CRTC2) (protein, UniProt Q53ET0 1-693) MATSGANGPGSATASASNPRKFSEKIALQKQRQAEETAAFEEVMMDIGSTRLQAQKLRLAYTRSSHYGGSLPNVNQIGSGLAEFQSPLHSPLDSSRSTRHHGLVERVQRDPRRMVSPLRRYTRHIDSSPYSPAYLSPPPESSWRRTMAWGNFPAEKGQLFRLPSALNRTSSDSALHTSVMNPSPQDTYPGPTPPSILPSRRGGILDGEMDPKVPAIEENLLDDKHLLKPWDAKKLSSSSSRPRSCEVPGINIFPSPDQPANVPVLPPAMNTGGSLPDLTNLHFPPPLPTPLDPEETAYPSLSGGNSTSNLTHTMTHLGISRGMGLGPGYDAPGLHSPLSHPSLQSSLSNPNLQASLSSPQPQLQGSHSHPSLPASSLARHVLPTTSLGHPSLSAPALSSSSSSSSTSSPVLGAPSYPASTPGASPHHRRVPLSPLSLLAGPADARRSQQQLPKQFSPTMSPTLSSITQGVPLDTSKLSTDQRLPPYPYSSPSLVLPTQPHTPKSLQQPGLPSQSCSVQSSGGQPPGRQSHYGTPYPPGPSGHGQQSYHRPMSDFNLGNLEQFSMESPSASLVLDPPGFSEGPGFLGGEGPMGGPQDPHTFNHQNLTHCSRHGSGPNIILTGDSSPGFSKEIAAALAGVPGFEVSAAGLELGLGLEDELRMEPLGLEGLNMLSDPCALLPDPAVEESFRSDRLQ",binding,binds

# No constants are given. Whether binding was seen depends on the method and setting. Binding seen in cells or lysates may run through a third protein. Binding can be weak; no strength is given. Tags and fused reporters may be left off the sequences shown.
